In article PMC3906129:
Results are given in words; binding and its absence hold for the method and conditions named. In cells and extracts the contact can be indirect. Binding can be weak; no strength is given. Tags and fused reporters may be left off the sequences shown. Values belong to the molecule of their own block, whether it stands above or below them.

Tests used:
[1] = biological target: T1, myc-Dvl2 (Xenopus Dishevelled 2) (Xenopus) (UniProt P51142); test: co-IP; Figure 5C, D: Flag-Arrb2, myc-Dvl2, HA-Gβ1 and HA-Gγ2 overexpressed in HEK 293T, with or without the Gβ-sequestering β-ARKct; Flag-Arrb2 (C) or myc-Dvl2 (D) precipitated; NP-40 buffer; 4 h at 4°C with antibody and protein G-magnetic beads; Western blot
T1 sequence: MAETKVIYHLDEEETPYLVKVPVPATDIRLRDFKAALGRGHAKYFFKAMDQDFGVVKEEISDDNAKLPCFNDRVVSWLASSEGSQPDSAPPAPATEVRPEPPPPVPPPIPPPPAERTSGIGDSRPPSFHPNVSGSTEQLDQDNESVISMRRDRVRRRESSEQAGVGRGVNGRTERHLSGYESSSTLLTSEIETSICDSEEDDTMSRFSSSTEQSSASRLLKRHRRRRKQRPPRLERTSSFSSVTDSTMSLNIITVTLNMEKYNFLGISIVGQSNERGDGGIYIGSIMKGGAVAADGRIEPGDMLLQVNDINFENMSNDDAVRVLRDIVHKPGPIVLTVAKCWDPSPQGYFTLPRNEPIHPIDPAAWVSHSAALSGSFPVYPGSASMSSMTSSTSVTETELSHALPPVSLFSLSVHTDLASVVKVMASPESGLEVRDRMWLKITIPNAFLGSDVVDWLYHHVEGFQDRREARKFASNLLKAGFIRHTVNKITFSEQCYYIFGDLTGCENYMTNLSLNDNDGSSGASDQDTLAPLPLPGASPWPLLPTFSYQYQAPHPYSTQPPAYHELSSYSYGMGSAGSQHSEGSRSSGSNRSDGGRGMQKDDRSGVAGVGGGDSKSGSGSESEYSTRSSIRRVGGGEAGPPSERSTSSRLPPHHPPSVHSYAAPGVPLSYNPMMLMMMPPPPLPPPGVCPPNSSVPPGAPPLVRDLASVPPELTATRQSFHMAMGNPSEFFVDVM

[2] = biological target: Flag-β-Arrestin2 (Xenopus); test: co-IP; Figure 5A: Flag-Arrb2 co-expressed with HA-Gβ1 and HA-Gγ2, with or without Dvl1, Dvl2 or Dvl3, in HEK 293T; NP-40 buffer (20 mM Tris-HCl pH 7.4, 150 mM NaCl, 2 mM EDTA, 1% NP-40); 4 h at 4°C with antibody and protein G-magnetic beads; Western blot
[3] = biological target: Flag-β-Arrestin2 (Xenopus); test: co-IP; Figure 5C, D: Flag-Arrb2, myc-Dvl2, HA-Gβ1 and HA-Gγ2 overexpressed in HEK 293T, with or without the Gβ-sequestering β-ARKct; Flag-Arrb2 (C) or myc-Dvl2 (D) precipitated; NP-40 buffer; 4 h at 4°C with antibody and protein G-magnetic beads; Western blot

- binding [1]: binds
Molecule: Flag-β-Arrestin2 (Xenopus)

- binding [2]: binds
- binding [3]: binds
B1: myc-Dvl2 (Xenopus Dishevelled 2) (protein, UniProt P51142 1-736)
chain: T1 sequence

- binding [2]: binds
B2: myc-Dvl3 (Xenopus Dishevelled 3) (protein, UniProt Q6DKE2 1-717)
chain: MGETKVIYHLDEQETPYLVKLPVPAEKVTLGDFKNILNKPNYKFFFKSMDDDFGVVKEEISDDNAKLPCFNGRVVCWLVSADGSQSDAGSVCADIQSDLPPPIERTGGIGDSRPPSFHPNTRGSQENLDNETETDSVVSARRERPGRKETSEHATRINGTSKMERRRDTGGYESSSTLMSSELDSTSFFDSDEDDSTSRFSNSTEQSSASRLMRRHKRRRRKPKAPQIERSSSFSSITDSTMSLNIITVTLNMEKYNFLGISIVGQSNERGDGGIYIGSIMKGGAVAADGRIEPGDMLLQVNDTNFENMSNDDAVRVLRDIVHKPGPITLTVAKCWDPSPRNCFTLPRSEPIRPIDPAAWVSHTAAMTGTYPAYGMSPSMSTITSTSSSITSSIPETERFDDFQLSIHSDMVTIVKAMSSSESGLEVRDRMWLKITIPNAFIGSDVVDWLYHHVEGFTDRREARKYASNLLKAGYIRHTVNKITFSEQCYYIFGDLCGNMANLSLNDHDGSSGTSDQDTLAPLPHPGAAPWPIAFQYQYPLPHPYSPHPGFPDPAYIYGGGSAGSQHSEGSRSSGSNRSSTEKRKDRETKGGDSKSGGSGSESDHTTRSSLRRDRAASERSVPASEHSHRSHHSIAHSIRSHHTHQSFGPPGIPPLYGAPMMMMPAPVSVMGPPGAPPSRDLASVPPELTASRQSFRMAMGNPSEFFVDVIKEFWGV
